These are yes or no findings as the source states them, for the method shown. In cells and extracts the contact can be indirect. Some entries that bind do so weakly or less than the wild type.

The chains behind the UniProt entries cited, without tags or fusion partners.
UniProt Q07335: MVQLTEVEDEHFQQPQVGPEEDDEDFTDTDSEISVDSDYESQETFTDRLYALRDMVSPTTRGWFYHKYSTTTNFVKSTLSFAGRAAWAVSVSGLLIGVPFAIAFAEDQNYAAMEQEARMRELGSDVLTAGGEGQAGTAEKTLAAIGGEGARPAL

In the assay the target is Tom22 of Neurospora crassa with a hexahistidine tag (Neurospora crassa) (UniProt Q07335). As to the kind of experiment: pull-down + SEC; His6-Tom22 held on a nickel-NTA column from outer membrane vesicles of N. crassa GR-107 solubilised in 1% GDN (10 mM MOPS pH 7.0, 50 mM potassium acetate, 50 mM imidazole), eluted with 300 mM imidazole, then Superdex 200 Increase; subunits seen by SDS-PAGE with Coomassie staining.

B1: Tom6 of the Neurospora crassa TOM complex (protein, UniProt Q1K6I2 1-60)
chain: MPSAKYIERPGGSRKSKGFIRSTYDSLTSSENASVVRSIAFFGAAVAFLSSSWGEMLVVQ
In the case of B1, the binding entry is “binds”.

The values are drawn from paper PMC10450662.
